# Results are given in words; binding and its absence hold for the method and conditions named. In cells and extracts the contact can be indirect. Here binding means that the protein was enriched with, or labelled near, the bait; the list need not be complete. Sequences can lack the tags named with a protein.
# Chains of the proteins cited; added tags and fusions are not shown.
# UniProt Q9UMX0: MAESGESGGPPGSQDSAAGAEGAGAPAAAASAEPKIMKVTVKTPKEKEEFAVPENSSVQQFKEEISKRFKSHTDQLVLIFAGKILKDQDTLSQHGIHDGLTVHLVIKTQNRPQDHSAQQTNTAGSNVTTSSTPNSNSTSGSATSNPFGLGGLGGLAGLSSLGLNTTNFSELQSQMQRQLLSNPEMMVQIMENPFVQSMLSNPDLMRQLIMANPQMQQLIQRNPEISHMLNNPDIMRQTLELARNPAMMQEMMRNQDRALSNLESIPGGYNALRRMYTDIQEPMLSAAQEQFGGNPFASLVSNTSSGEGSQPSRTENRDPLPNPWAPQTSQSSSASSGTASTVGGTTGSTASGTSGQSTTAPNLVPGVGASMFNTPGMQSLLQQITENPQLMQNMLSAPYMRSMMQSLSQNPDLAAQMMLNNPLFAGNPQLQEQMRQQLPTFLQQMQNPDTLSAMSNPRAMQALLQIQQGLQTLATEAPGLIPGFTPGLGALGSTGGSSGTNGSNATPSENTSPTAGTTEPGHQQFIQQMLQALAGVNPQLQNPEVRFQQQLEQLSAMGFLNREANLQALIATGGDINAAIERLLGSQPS
# Biological target: T1, Beclin 2-Flag (UniProt A8MW95)
# T1 sequence: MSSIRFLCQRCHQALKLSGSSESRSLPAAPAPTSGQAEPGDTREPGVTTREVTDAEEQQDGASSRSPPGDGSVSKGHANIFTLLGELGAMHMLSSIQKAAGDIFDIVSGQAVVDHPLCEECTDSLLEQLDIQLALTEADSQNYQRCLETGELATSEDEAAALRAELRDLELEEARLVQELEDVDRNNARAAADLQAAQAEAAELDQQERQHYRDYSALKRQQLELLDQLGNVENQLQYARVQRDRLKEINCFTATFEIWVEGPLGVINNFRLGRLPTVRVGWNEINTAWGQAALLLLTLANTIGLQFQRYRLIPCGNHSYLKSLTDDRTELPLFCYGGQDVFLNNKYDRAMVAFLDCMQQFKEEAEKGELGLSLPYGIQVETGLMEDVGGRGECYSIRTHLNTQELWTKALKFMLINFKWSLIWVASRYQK
# Test: affinity purification with mass spectrometry; lysate of MDA-MB-231 cells transfected with Beclin 2-Flag; IP with mouse Flag antibody against mouse IgG control, 12 h at 4°C, protein A/G magnetic beads, washes with PBST; MaxQuant search against UniProt human data
substance,measurement,value
Ubiquilin 1 (from UniProt Q9UMX0 1-589),binding,binds

# Source: paper PMC11671618
